The values that follow come from ChEMBL document CHEMBL3091376, “Design, synthesis and in vitro anticancer evaluation of 4,6-diamino-1,3,5-triazine-2-carbohydrazides and -carboxamides” (Bioorg Med Chem Lett, 2013).

The structures appear in SMILES notation. Structures can show the parent of a compound that is named as a salt.

For the experiment, the system named is MDA-MB-231. Kind of experiment: Growth inhibition of human MDA-MB-231 cells after 72 hrs by CellTiter-Blue assay. The class given is functional, cell-based. The conditions noted are these: MDA-MB-231, 72 h. In outline:
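CellTiter-Blue viability assay after 72 h exposure to test compound. IC50 (μM) reported as the mean of triplicates with standard deviation. Some values are approximate owing to low solubility in medium.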

Broadly, the IC50 is the concentration at which inhibition is half-maximal. `COc1cccc2c1C(=O)c1c(O)c3c(c(O)c1C2=O)C[C@@](O)(C(=O)CO)C[C@@H]3O[C@H]1C[C@H](N)[C@H](O)[C@H](C)O1` [DOXORUBICIN HYDROCHLORIDE] came in with an IC50 of 390 nM.
